This assay is described as follows: qHTS Assay to Find Inhibitors of Chronic Active B-Cell Receptor Signaling. The note with it: ABC-DLBCL IkBa-CBG/CBR reporter, luminescence ratio (green luciferase fused to IkBa over red control in TMD8 lymphoma cells), 4 h. The method in brief:
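Compounds up to 46 uM were incubated four hours with TMD8 cells whose green CBG68 luciferase is fused to IkappaBalpha; red CBR luminescence normalised the signal, and concentration-effect curves were fitted to fusion, red and ratio data.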
On the technique in general: qHTS replaces the single test concentration by a dilution series.

The mark [1] stands for this setting: measured here: CBR red luminescence, cell number.
[2] abbreviates: measured here: IkBa-CBG green luminescence.

Some of the results follow. Shown are side measurements of this screen, not its main read-out; they come without a call. The list favours compounds with an active or inconclusive main result. Potencies come from curve fits of mixed quality, noted in brackets.

By AC50 is commonly meant the concentration at which the activity in the assay is half-maximal. On to `CC(C)[C@H](NC(=O)N1c2ccccc2NC(=O)[C@@H]1C(C)C)C(=O)N1CCC(C(=O)O)CC1`, for which the AC50 under setting [1] is 0.708 µM [falling, partial curve, poor fit].
In the case of `C=CCn1c(SCc2c(C(=O)OC)sc(N)c2C(=O)OC)nnc1-c1ccc(Br)cc1`, the AC50 under setting [1] is 18.4 µM [falling, single point].
As to `O=CNNC(=O)c1cccc([N+](=O)[O-])c1`, the AC50 runs as follows: under setting [1], 6.51 µM [falling, single point]; under setting [2], 5.8 µM [rising, partial curve, poor fit].
For the compound `O=C1N(CN2CCOCC2)c2ccccc2C12OCC(CCl)O2` (stereo not given), the AC50 under setting [1] was 0.891 µM [rising, full curve, poor fit].
Regarding `Cc1ccc(-c2nn(-c3ccccc3)cc2C=C2C(=O)CC(C)(C)CC2=O)cc1`, the AC50 under setting [1] is 11.2 µM [rising, partial curve].
On to `CC(/C=C/c1ccco1)=N\NC(=O)C(O)c1ccccc1` (stereo not given), for which the AC50 under setting [1] was 29.1 µM [falling, single point].
The same measure, in the same setting: the same measure for `O=C(C1CCN(Cc2ccc(OCc3ccccc3)cc2)CC1)N1CCCC1`: 0.058 µM [rising, full curve, poor fit].
Still for that read-out and setting: the figure for `CCOC(=O)c1oc2ccccc2c1NC(=O)c1cccc(OC)c1OC` is 0.116 µM [falling, full curve, poor fit].
On the same count and under the same terms, the same measure for `COc1ccc(C(=O)/C=C/Nc2ccccn2)cc1`: 1.46 µM [falling, full curve].
On to `CCO[C@H]1OC(C(=O)Nc2ccccc2)=C[C@@H](c2ccc(C(F)(F)F)cc2)[C@@H]1CCCO`, for which the AC50 under setting [1] is 15.8 µM [falling, single point].
As for `Cc1cccc(OCC(=O)N2CCOCC2)c1`, the half-maximal activity concentration (AC50) under setting [1] was 2.06 µM [rising, single point].
Same read-out and setting: the same measure for `CN(C)c1ccc(N=Nc2ccc(C(=O)O)cc2)cc1`: 1.26 µM [falling, full curve, poor fit]; for `CN(CC(=O)Nc1ccccc1Br)C(=O)CCC1CCCC1`: 8.91 µM [falling, partial curve].
Still for that read-out and setting: the figure for `COC(=O)CCCCC1SCC(NC(=O)c2ccccc2)C1OC(C)=O` (stereo not given) is 7.94 µM [rising, partial curve, poor fit]; for `O=C(COc1ccc(Br)cc1)N1CCN(c2ncccn2)CC1` it is 25.9 µM [rising, partial curve, poor fit]; for `CC(CCc1ccccc1)NC(=O)c1cc2sccc2n1C` (stereo not given) it is 29.1 µM [rising, single point].
The same measure, in the same setting: the figure for `S=C(NCc1cccnc1)Nc1ccc(Cl)c(Cl)c1` is 11.2 µM [falling, single point].
As for `Nc1c(-c2ccc(Cl)cc2)cnc2ncnn12`, under setting [1], the AC50 was 3.16 µM [rising, partial curve, poor fit].
Same read-out and setting: the figure for `O=C(N/N=C/c1cccs1)C1CC(=O)N(c2ccccc2)C1` (stereo not given) is 7.08 µM [falling, partial curve, poor fit].
The same measure, in the same setting: the same measure for `CC(C)(C)c1cc(N)n(-c2ccc(C(=O)O)cc2)n1`: 22.4 µM [falling, single point]; for `CCOC(=O)Cc1cc(=O)n2[nH]c(-c3ccccc3)cc2n1`: 25.9 µM [falling, partial curve, poor fit]; for `O=C(COC(=O)COc1ccc(Cl)cc1)NCc1cccs1`: 11.6 µM [rising, partial curve, poor fit].
In the case of `O=C(O)c1cccc(-n2nc(-c3ccc(Cl)c([N+](=O)[O-])c3)c3ccccc3c2=O)c1`, the half-maximal activity concentration (AC50) under setting [1] is 10 µM [falling, partial curve].
Still for that read-out and setting: the figure for `O=C(COC(=O)c1ccccc1Nc1ccccc1)Nc1ccccc1` is 8.2 µM [rising, partial curve, poor fit]; for `CC(=O)Nc1ccc(NC(=O)C(C)OC(=O)CCC2CCCC2)cc1` (stereo not given) it is 29.1 µM [rising, partial curve, poor fit]; for `COc1ccc(S(=O)(=O)N(C)C[C@H]2Oc3ccc(NS(=O)(=O)c4c(C)noc4C)cc3C(=O)N([C@H](C)CO)C[C@@H]2C)cc1` it is 1.84 µM [rising, partial curve].
For `Cc1ccc(C2C(C#N)=C(N)Oc3n[nH]c(-c4cccs4)c32)s1` (stereo not given), the half-maximal activity concentration (AC50) under setting [1] was 3.98 µM [falling, full curve, poor fit].
Still for that read-out and setting: the figure for `O=C(Nc1nnc(-c2ccccc2)s1)c1ccc(Cl)c(S(=O)(=O)N2CCOCC2)c1` is 14.1 µM [rising, partial curve, poor fit]; for `CN(Cc1nc(-c2ccc(C(F)(F)F)cc2)no1)C1CCOCC1` it is 35.5 µM [rising, single point].
Same read-out and setting: the same measure for `OC(CNCc1ccc(F)cc1)(c1ccc(F)cc1)c1ccc(F)cc1`: 14.1 µM [falling, single point].
In the case of `Cc1nc2c(ccc3nc(NC(=O)Cc4cccc5ccccc45)sc32)s1`, the AC50 under setting [2] is 3.66 µM [rising, full curve, poor fit].
On to `CC(C)C(=O)Nc1ccc(-c2nc3cccnc3o2)cc1`, for which the AC50 under setting [1] is 2.31 µM [rising, partial curve].
Still for that read-out and setting: the same measure for `O=S(=O)(c1ccc(-c2ccon2)s1)N1CCCC1`: 6.31 µM [falling, single point]; for `O=[N+]([O-])c1ccc(O)c(-c2nn[nH]n2)c1`: 4.61 µM [falling, full curve, poor fit].
Turning to `O=C(Nc1cc(C(F)(F)F)ccc1N1CCOCC1)c1cccs1`, the AC50 under setting [1] was 0.82 µM [rising, full curve, poor fit].
Consider `O=C(CCCN1C(=O)/C(=C\c2cccs2)SC1=S)NNC(=O)c1ccncc1`, for which, under setting [1], the concentration at half-maximal activity (AC50) was 2.24 µM [falling, full curve, poor fit].
As to `O=C(Nc1nnc(C2CC2)s1)C1Cc2ccccc2CN1C(=O)c1ccco1` (stereo not given), under setting [1], the AC50 is 2 µM [rising, full curve, poor fit].
Still for that read-out and setting: the same measure for `COC(=O)c1ccc(-c2ccco2)n1Cc1nc(-c2ccc(OC)c(OC)c2)oc1C`: 1.03 µM [falling, partial curve, poor fit]; for `CC(=O)NS(=O)(=O)c1cccnc1Nc1ccc(Cl)c(Cl)c1`: 11.6 µM [rising, single point]; for `O=C(c1ccc(C(F)(F)F)cc1)N1CCC(=O)N(C(COCc2ccc(C(F)(F)F)cc2)Cc2ccccc2)CC1` (stereo not given): 25.9 µM [falling, single point].
The same measure, in the same setting: the figure for `CCOC(=O)c1c(N)sc2c1CCCC2` is 25.1 µM [falling, partial curve, poor fit].
As to `NS(=O)(=O)c1ccc(NC(=O)CSc2nc3ccccc3n2-c2ccccc2)cc1`, the AC50 is, setting by setting: under setting [1], 20.6 µM [falling, partial curve]; under setting [2], 20.6 µM [rising, partial curve, poor fit].
Take `CCOc1ccc(-n2c(=S)sc3c(=O)[nH]c(SCC(=O)C(C)(C)C)nc32)cc1`: the concentration at half-maximal activity (AC50) under setting [1] is 3.16 µM [falling, partial curve, poor fit].
The same measure, in the same setting: the same measure for `O=C(O)c1cc(NN=C2c3ccccc3-c3ccccc32)ccc1Cl`: 12.6 µM [falling, partial curve].
The same measure, in the same setting: the same measure for `CN(C)S(=O)(=O)c1cccc(NC(=O)C2Cc3ccccc3CN2C(=O)c2ccco2)c1` (stereo not given): 35.5 µM [falling, single point]; for `COc1cc(Cl)cc2c1Sc1ccccc1/C2=C/CCN(C)C`: 35.5 µM [falling, single point].
Consider `COc1ccc(C(=O)N/N=C/c2ccc(OC)c(CSc3ccccn3)c2)cc1`, for which the AC50 under setting [2] was 20.6 µM [rising, partial curve, poor fit].
Turning to `CCc1nn2c(=O)cc(COC(=O)c3cc(Cl)c(OC)c(OC)c3)nc2s1`, the AC50 under setting [1] was 3.26 µM [rising, partial curve, poor fit].
Still for that read-out and setting: the same measure for `COc1ccccc1C(=O)N(Cc1cccs1)C1CCS(=O)(=O)C1` (stereo not given): 35.5 µM [rising, single point]; for `Cc1ccc(NC(=O)NNC(=O)c2ccccc2)cc1`: 22.4 µM [falling, single point]; for `CCN1C=CC(=C2C(=O)c3ccccc3C2=O)C=C1`: 7.08 µM [falling, partial curve, poor fit].
The same measure, in the same setting: the same measure for `CCCCOc1cccc(NC(=O)CSc2nccn2C)c1`: 3.66 µM [rising, full curve, poor fit]; for `COc1ccccc1C(=O)NNC(=O)c1ccc(Br)o1`: 17.8 µM [falling, partial curve, poor fit]; for `Cc1nc(/C=C/c2ccccc2)[nH]c(=O)c1-c1ccccc1`: 1.03 µM [rising, full curve, poor fit].
On to `CC1(C)CC(=O)C=C(Nc2ccccc2)C1`, for which, under setting [1], the AC50 is 8.91 µM [falling, partial curve, poor fit].
Same read-out and setting: the figure for `Cn1c2c(c3ccccc31)CCN1CCC[C@]21c1ccccc1` is 3.98 µM [falling, full curve, poor fit]; for `CCc1ccc(OCC(=O)NC(NC(=S)Nc2ccccc2C)C(Cl)(Cl)Cl)cc1` (stereo not given) it is 16.4 µM [falling, partial curve, poor fit].
On to `CC(C)[C@H](NC(=O)c1c(F)cccc1F)C(=O)Nc1cccc(Br)c1`, for which the concentration at half-maximal activity (AC50) under setting [1] is 17.8 µM [rising, partial curve, poor fit].
Same read-out and setting: the figure for `O=C(O)Cc1csc(Nc2cccc(Cl)c2)n1` is 0.731 µM [rising, partial curve, poor fit]; for `O=c1c(-c2ccccc2)c(O)c2ccccc2n1-c1ccccc1` it is 35.5 µM [rising, partial curve, poor fit].
Still for that read-out and setting: the same measure for `O=C(Nc1ccc2c(c1)OCCO2)c1cccc(Cl)c1Cl`: 12.6 µM [falling, partial curve, poor fit]; for `CCOc1ccccc1C(=O)NC1CC2CCCC(C1)N2Cc1nnnn1Cc1ccco1` (stereo not given): 2.51 µM [rising, partial curve, poor fit]; for `O=C(CN1CCc2ccccc2C1)NCC(=O)Nc1ccc(F)cc1`: 8.91 µM [falling, partial curve].

(Values after PubChem BioAssay AID493014 (National Center for Advancing Translational Sciences (NCATS), 2011).)
